According to US20130116219A1, “ANTIMICROBIAL CARBOLINE COMPOUNDS” (ALCON RESEARCH, LTD., priority 2011, published 2013):
At least one compound was matched to its structure with a doubt left.

Tested on: Ad5
Assay: Rabbit model of adenoviral (Ad5) ocular keratitis
Assay type: in vivo, New Zealand White rabbits
Settings: 1% topical, 8 times a day for 9d, NZW rabbits, vs saline control, days 2-11

With `CC(C)C[C@H]1c2[nH]c3ccc(Cl)cc3c2CCN1C(=O)CCN1CCC(F)(F)CC1` [Compound 6, (S)-1-(6-chloro-1-isobutyl-3,4-dihydro-1H-pyrido[3,4-b]indol-2(9H)-yl)-3-(4,4-difluoropiperidin-1-yl)propan-1-one] the “median daily ocular Ad5 titer” value was “reduced median viral titer significantly relative to the saline control”.
